Laboratory results from publication PMC3934973.
These are yes or no findings as the source states them, for the method shown. In cells and extracts the contact can be indirect. A result given as binding can be weak or reduced; the word gives no strength.

Biological target: AtSar1 (Arabidopsis thaliana (endogenous in Col-0 seedlings))
Assay: co-IP; Triton X-100 extract of 15-day-old A. thaliana Col-0 seedlings (20 mM HEPES pH 6.8, 125 mM potassium acetate, 1 mM EDTA, 1% Triton X-100); immunoprecipitated overnight at 4 °C with anti-AtSar1 serum and protein A/protein G/γ-Bind-Sepharose beads; Western blot with anti-AtSar1, anti-AtSec12, anti-AtSec13 and anti-AtSec23 sera

B1: AtSec12 (protein, UniProt Q39221 1-393)
chain: MANQSTETNQPSNMQTYGVPIYAADWIPEVDVRSKIIMDPEKSEDDDESSSSSSSSRSCIVLSGGGGEGRSGISNVILICRVDLNTNSLSEQPLGRLVVGSDLPYRMAVHPREGGLICALPNSCKLFHWEDIMSREDNQAGESEEVIKELRDVGQQLALAFNPEGSVLAAGAEDGTLRVFKWPSMNTLLNESQAHSSVKCLTFSESGQFLVSLGGPVCRVWDVNASAAVASLSKEKDEMFASCRFSVDSAGNEVLYIAANTERGGSIITCDTKLWKRKWSKPIKKNSISAFNVSADGKLLAIGTLEGDVLILESTRMQTIQVVKKAHLGLVTALTFSPDSRGLVSVSFDSRARLTMIEQKGDKPGVRWWLLVLLIVLLYVVAYYYMKAKGIIP
binding: binds
